Test results: PubChem BioAssay AID2685 (National Center for Advancing Translational Sciences (NCATS), 2010)
The other results are listed elsewhere or left out. Shown are side measurements of this screen, not its main read-out; they come without a call. Most of these compounds were active or inconclusive in the main read-out, so they are no random draw. The note in brackets gives the kind of curve behind each potency; many fits are weak.

Experiment: qHTS Assay for Lipid Storage Modulators in Drosophila S3 Cells;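 on cell number change: cells counted by Cell Tracker Red CMTPX staining in the red channel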
Conditions: BODIPY lipid droplet fluorescence, 18-24 h; for cell number change: measured here: cell count max response, cells fed with added oleic acid
How it was run: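 Laser-scanning cytometry quantifies lipid droplet accumulation (500–530 nm total intensity; droplet/cell object ratio) in oleic acid-fed (400 uM added) Drosophila S3 cells treated with a concentration series. 20 uM Triacsin C defined 100% inhibition.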

[1] = measured here: cell number channel AC50, cells fed with added oleic acid
[2] = measured here: lipid fluorescence (Fed channel) AC50, cells fed with added oleic acid

Row | SMILES | cell number change | AC50 [1] | AC50 [2]
1 | CCCc1nc2c(ccc3ccccc32)cc1CC | 4.17% | 0.103 µM [rising, partial curve, poor fit] | 
2 | Cc1ccc(Cn2c(N3CCNCC3)nc3c2c(=O)[nH]c(=O)n3C)cc1 | 40.7% | 7.31 µM [rising, partial curve, poor fit] | 
3 | CCN1C(=O)c2ccccc2S(=O)c2ccc(C(=O)N3CCN(C(=O)c4ccco4)CC3)cc21 (configuration not stated) | 4.39% |  | 18.4 µM [rising, partial curve, poor fit]
4 | COC(=O)c1ccc(Cl)cc1N(Cc1c(F)cccc1Cl)S(C)(=O)=O | 1.06% |  | 29.1 µM [falling, single point]
5 | O=C(Nc1ccc(N2CCCCCC2)cc1)c1cccc(S(=O)(=O)N2CCOCC2)c1 | -22.2% |  | 29.1 µM [falling, single point]
6 | O=c1[nH]c2cccc(Cl)c2n(CCNc2ncc(C(F)(F)F)cc2Cl)c1=O | -55.1% | 16.4 µM [falling, single point] | 
7 | Cc1ccc(-n2c(SCC(=O)Nc3nccs3)nc3c(c2=O)SCC3)cc1 | 3.37% |  | 1.64 µM [rising, partial curve]
8 | Cc1c(C(=O)NCCCN2CCOCC2)sc2ncnc(N3CCN(c4ccccc4)CC3)c12 | -2.03% |  | 0.461 µM [rising, partial curve, poor fit]
9 | CCn1cc(Cl)c(C(=O)Nc2cccc(CN3CCOCC3)c2)n1 | -0.567% |  | 29.1 µM [falling, single point]
10 | Cc1ccc(S(=O)(=O)NCc2ccco2)cc1C |  |  | 0.00461 µM [falling, full curve, poor fit]
11 | CCOC(=O)c1ccc(NCn2c(=O)oc3ccccc32)cc1 | 34.4% | 16.4 µM [rising, single point] | 
12 | CC(=O)N1CCc2cc(S(=O)(=O)NC(CC(C)C)C(=O)Nc3cc(C(=O)O)ccc3C)ccc21 (configuration not stated) | -107% | 23.1 µM [falling, partial curve] | 5.8 µM [falling, full curve]
13 | COc1ccc(/C(N)=N/OC(=O)N2CCOCC2)cc1 | 2.27% |  | 1.03 µM [falling, full curve]
14 | CCCCn1c(N)c(N(CCC(C)C)C(=O)c2ccc3c(c2)OCCO3)c(=O)[nH]c1=O | -15.2% |  | 1.84 µM [rising, full curve, poor fit]
15 | O=C(Cn1cnc2ccccc2c1=O)N1CCN(S(=O)(=O)c2ccc(F)cc2)CC1 | 4.01% | 2.06 µM [rising, single point] | 2.06 µM [rising, single point]
16 | Cc1ccc(S(=O)(=O)N2CCCCC2CCNC(=O)C(=O)NCCc2ccco2)cc1 (configuration not stated) | 17.1% |  | 0.184 µM [falling, full curve, poor fit]
17 | NC(=O)NC(=O)CSc1nnc(-c2ccco2)n1Cc1ccccc1 |  |  | 29.1 µM [rising, single point]
18 | CCOc1ccc(N2CC(C(=O)Nc3ccccn3)CC2=O)cc1 (configuration not stated) | 11% |  | 
19 | COc1ccc(C(=O)N2CCN(S(=O)(=O)c3cc(Cl)ccc3OC)CC2)cc1 |  | 4.61 µM [rising, single point] | 6.51 µM [rising, single point]
20 | COc1ccc(O)c(/C=C(\C#N)C(=O)Nc2cccnc2)c1 | 8.08% | 0.184 µM [falling, full curve, poor fit] | 0.291 µM [falling, partial curve]

Row | SMILES | cell number change | AC50 [1] | AC50 [2]
21 | COc1ccc(C2CC(c3ccccc3)=NN2C(=O)COC(=O)c2cnc(Cl)c(Cl)c2)cc1 (configuration not stated) | -48.9% | 4.61 µM [falling, full curve] | 29.1 µM [falling, single point]
22 | C=COC(=O)CSc1nc(-c2cccs2)ccc1C#N | -22.2% |  | 6.51 µM [rising, partial curve, poor fit]
23 | O=C(C1CCN(S(=O)(=O)c2cnc[nH]2)CC1)N(CCc1ccccc1)Cc1ccccc1 | -13% |  | 
24 | Cc1ccc(CC(=O)NC(C)CCc2ccccc2)cc1 (configuration not stated) | -10.3% |  | 
25 | Cc1[nH]c2ccc(C(=O)NCc3ccccn3)cc2c1C | 2.45% |  | 
26 | O=C(c1ccccc1NS(=O)(=O)c1ccccc1)N1CCCCCC1 | 6.2% |  | 29.1 µM [rising, single point]
27 | O=C(Nc1ccccc1C(=O)O)c1ccc(NC(=O)C2CCCCC2)cc1 | 19.1% |  | 20 µM [rising, single point]
28 | CC(C)C[C@H](N)c1nnc(S(=O)(=O)Cc2cccc(F)c2)o1 | -88.6% | 16.4 µM [falling, partial curve, poor fit] | 29.1 µM [falling, single point]
29 | O=C(CSc1cccc(C(F)(F)F)c1)N1CCN(S(=O)(=O)c2ccccc2)CC1 | 16.2% | 1.64 µM [rising, partial curve, poor fit] | 
30 | C=CCN1C(=O)C(CC(=O)O)SC1=Nc1ccc(C)cc1 (configuration not stated) | 8.66% |  | 29.1 µM [rising, single point]
31 | Cc1nc(CN2CCN(C(=O)NC3(c4ccccc4)CC3)CC2)cs1 | -3.91% |  | 0.146 µM [falling, full curve, poor fit]
32 | Cc1cccn2c(=O)c3cc(S(=O)(=O)c4ccccc4)c(=N)n(CC4CCCO4)c3nc12 (configuration not stated) |  | 0.0326 µM [rising, full curve, poor fit] | 
33 | CCc1ccc(C(=O)C(C)OC(=O)Cn2[nH]c(=O)c3ccccc3c2=O)cc1 (configuration not stated) | -10.6% | 0.651 µM [falling, single point] | 0.461 µM [falling, single point]
34 | C#CCn1c2ccccc2c2nc3ccccc3nc21 |  |  | 0.13 µM [rising, full curve, poor fit]
35 | O=P(O)(c1ccc(Cl)cc1)c1ccc(Cl)cc1 | -1.9% |  | 29.1 µM [falling, partial curve]
36 | Cc1ccc(C)c(NC(=O)c2nnn(Cc3ccccc3C)c2N)c1 | -14.2% | 6.51 µM [falling, single point] | 6.51 µM [falling, single point]
37 | NC(=O)COC(=O)CCSc1ccc(Cl)cc1 | -19.2% |  | 8.91 µM [falling, partial curve]
38 | CC1(C)N=C(/C=N/O)CN1O |  |  | 14.6 µM [falling, partial curve, poor fit]
39 | Cc1cc(NC(=O)CSc2nc(-c3cccs3)nc3ccccc23)no1 | -11.9% |  | 
40 | Fc1ccccc1Nc1nc2c(s1)CCc1ccccc1-2 | -40.8% | 29.1 µM [falling, partial curve] | 20.6 µM [falling, partial curve]

Row | SMILES | cell number change | AC50 [1] | AC50 [2]
41 | COc1ccccc1N1CCN(C(=O)CCCCn2c(=O)[nH]c3ccsc3c2=O)CC1 | 30.4% | 2.06 µM [rising, partial curve] | 1.84 µM [rising, partial curve]
42 | N#CC1(c2nc3ccccc3[nH]2)CC1c1ccc2c(c1)OCO2 (configuration not stated) | 23.7% |  | 0.651 µM [rising, single point]
43 | O=C(O)/C(=C\c1cccc([N+](=O)[O-])c1)c1ccc(S(=O)(=O)N2CCCCC2)s1 | -45.2% | 29.1 µM [falling, single point] | 29.1 µM [falling, single point]
44 | Cc1onc(-c2ccccc2)c1C(=O)OCC(=O)N(CC(C)C)c1c(N)n(Cc2ccccc2)c(=O)[nH]c1=O | 27.9% |  | 23.1 µM [rising, partial curve, poor fit]
45 | CC(C)=C1SC(N2CCOCC2)=NC1=O | -13.4% |  | 2.91 µM [falling, partial curve, poor fit]
46 | COc1cc(NC(=O)COC(C)=O)cc(OC)c1OC | -38.5% |  | 
47 | COc1ccc(NC(=O)C(C)N2c3cccc4cccc(c34)S2(=O)=O)cc1 (configuration not stated) | 152% |  | 
48 | COc1ccc(OC)c(/C=C/C(=O)Nc2cccc(S(=O)(=O)N3CCCC3)c2)c1 | 8.92% |  | 
49 | CN(C)C(=O)C12CCC(C)(c3nc4ccccc4nc31)C2(C)C (configuration not stated) |  | 4.61 µM [rising, single point] | 
50 | CN1C2=CC=CC=CC2=[N+](C)C12C=CC(=[N+]([O-])[O-])C=C2[N+](=O)[O-] (configuration not stated) | 5.11% | 0.164 µM [falling, full curve, poor fit] | 0.13 µM [falling, full curve]
51 | CC(C)(C)CN1CCC(Oc2cccc(C(=O)NCCCOc3cccnc3)c2)CC1 |  |  | 29.1 µM [falling, partial curve, poor fit]
52 | CN(CCOc1ccccc1)C(=O)CCc1nc2sc3c(c2c(=O)[nH]1)CCCC3 | -3.4% |  | 29.1 µM [rising, single point]
53 | CN(C(=O)c1ccccc1Cl)c1ccccc1C(=O)NCc1ccccc1 | 3.47% |  | 6.51 µM [falling, single point]
54 | Cc1nn(-c2ccccc2)nc1C(N)=O | 17.7% | 6.51 µM [falling, partial curve, poor fit] | 7.31 µM [falling, partial curve, poor fit]
55 | Nc1cc(=O)nc(SCC(=O)Nc2ccccc2Cl)n1-c1ccccc1 |  |  | 0.164 µM [falling, full curve, poor fit]
56 | CC(C)n1c(C(F)(F)F)nc2cc(C(=O)N3CCOCC3)ccc21 | -30.9% | 0.00461 µM [falling, full curve] | 
57 | CC1(C)CC(c2nc(-c3ccccc3)cs2)CCS1 (configuration not stated) | -10.2% |  | 32.6 µM [falling, single point]
58 | c1ccc(CSc2nc3ncncc3[nH]2)cc1 | 23.9% |  | 16.4 µM [rising, partial curve]

Record cards, from the list above.
`CC(C)(C)CN1CCC(Oc2cccc(C(=O)NCCCOc3cccnc3)c2)CC1` is listed with AC50 [2]: 29.1 µM [falling, partial curve, poor fit]
`CC(C)n1c(C(F)(F)F)nc2cc(C(=O)N3CCOCC3)ccc21` is listed with cell number change: -30.9%; AC50 [1]: 0.00461 µM [falling, full curve]
